The other results are listed elsewhere or left out. The main result of the screen is listed elsewhere. These columns were measured beside it and carry no call. The list favours compounds with an active or inconclusive main result. Potencies come from curve fits of mixed quality, noted in brackets.
Test: qHTS Assay for Modulators of Lamin A Splicing
Conditions: HeLa LMNA splicing GFP/RFP minigene ratio, 48 h
Procedure, shortened: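 S3 HeLa stable clones carrying a lamin A-EGFP splicing minigene plus DsRed2 were seeded at 600 cells/well in Opti-MEM with 2% FBS, pin-dosed and incubated 48 h at 37°C. Acumen cytometry (488 nm) gave the GFP/RFP total-intensity ratio.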

[1] = measured here: GFP splicing reporter channel
[2] = measured here: RFP viability control channel

SMILES | AC50 [1] | AC50 [2]
O=C(Nc1ccc(NC(=O)c2ccco2)c(Cl)c1)c1ccccc1 | 35.5 µM [falling, partial curve, poor fit] | 22.4 µM [falling, partial curve]
Cn1cc(Cl)c(C(=O)OCC(=O)Nc2nc(-c3ccc(Br)cc3)cs2)n1 | – | 35.5 µM [rising, single point]
O=C(/C=C/c1ccc(OCCCF)cc1)Nc1ccnc(-c2ccncc2)n1 | 10 µM [falling, partial curve] | 10 µM [falling, partial curve]
COc1ccccc1CC(=O)Nc1cccc2c1CCCC2 | – | 1.78 µM [rising, partial curve, poor fit]
O=C(/C=C/c1ccco1)Nc1cccc(-c2nc3ccccc3[nH]2)c1 | 35.5 µM [falling, single point] | –
COC(=O)c1cc(C(=O)Nc2nnc(C3CC3)s2)cc([N+](=O)[O-])c1 | – | 0.562 µM [falling, full curve, poor fit]
CCOC(=O)c1ccc(N2CCN(c3cc(C)ccc3C)CC2)c(NC(=O)Nc2ccccc2)c1 | 0.126 µM [falling, full curve, poor fit] | 0.398 µM [falling, full curve, poor fit]
Cn1cc(C(=O)c2ccc(Cl)cc2Cl)cc1C(=O)N/N=C(\N)COc1ccc(Cl)cc1Cl | – | 12.6 µM [rising, single point]
Cc1cccc(NS(=O)(=O)c2ccc(NC(=O)CN(c3cc([N+](=O)[O-])ccc3C)S(C)(=O)=O)cc2)c1 | – | 12.6 µM [rising, partial curve]
COc1ccc(CNC(=O)c2ccc3c(c2)nc2n3CCC(C)C2)c(OC)c1 (centres undefined) | 1.26 µM [rising, partial curve] | 2.82 µM [rising, partial curve]
CCc1ccc(NC(=O)C(=O)NCCc2csc(-c3ccc(C(F)(F)F)cc3)n2)cc1 | 0.141 µM [rising, full curve, poor fit] | 0.0891 µM [rising, full curve, poor fit]
CC(C)Oc1cccc(-c2cc(C(=O)N3CCN(c4ncccn4)CC3)c3ccccc3n2)c1 | – | 17.8 µM [rising, partial curve, poor fit]
Cc1cc(-c2ccccc2)nc2cc(C(=O)N(Cc3ccccc3)Cc3ccccc3)nn12 | – | 35.5 µM [rising, single point]
CCOC(=O)c1c(C)nc2sc(C(=O)Nc3ccc(C(C)=O)cc3)c(N)c2c1-c1ccc(OC)cc1 | 0.794 µM [falling, partial curve, poor fit] | –
CSc1nc(-c2ccccc2)nc(C(Cl)Cl)n1 | 35.5 µM [falling, single point] | 3.16 µM [rising, partial curve]
CC/C(=N\NC(=O)COc1ccc(Br)cc1)c1ccc(OC)c(OC)c1 | 7.94 µM [falling, partial curve] | –
Cc1csc(NC(=O)c2ccc(C)c([N+](=O)[O-])c2)n1 | – | 14.1 µM [rising, partial curve]
CCCn1c2ccccc2c2cnn(CC(=O)N3CCC(C)CC3)c(=O)c21 | 3.55 µM [rising, single point] | –
COc1cc(C(=S)N2CCCCC2)ccc1OCC(=O)Nc1ccccc1Cl | – | 12.6 µM [rising, single point]
O=C(N/N=C/c1ccco1)c1ccc(NC(=O)C2CC2)cc1 | 35.5 µM [falling, single point] | –
CCCC[C@@H]1C[C@H]1[C@@H](NC(=O)c1cccs1)c1ccc(Cl)cc1 | 17.8 µM [rising, single point] | 25.1 µM [rising, partial curve]
COC(=O)Cn1nc(-c2ccccc2)c2ccccc21 | 4.47 µM [rising, full curve] | 6.31 µM [rising, full curve]
CNC(=S)N/N=C/c1cn(CCOc2ccccc2OC)c2ccccc12 | – | 35.5 µM [rising, single point]
O=C(NCc1ccncc1)c1cc(C(=O)C2CC2)c[nH]1 | 0.447 µM [falling, partial curve, poor fit] | 35.5 µM [falling, partial curve, poor fit]
Cn1c(SCC(=O)N2CCCc3ccccc32)nc2ccccc2c1=O | – | 7.08 µM [rising, full curve]
Cn1nccc1C(=O)N1CCCC(C(=O)c2cccc3ccccc23)C1 (centres undefined) | – | 35.5 µM [falling, single point]
N#CCSc1nnc(COc2cccc3ccccc23)n1-c1ccccc1 | 0.398 µM [rising, full curve, poor fit] | 20 µM [rising, partial curve, poor fit]
CC(C)OCCCn1c(=S)[nH]c2ccc(N3CCOCC3)cc2c1=O | 12.6 µM [rising, single point] | 17.8 µM [rising, single point]

SMILES | AC50 [1] | AC50 [2]
COc1ccc(C(=O)/C=C/C(=O)N(CC(=O)NC2CCCCC2)Cc2cccs2)c(O)c1 | 35.5 µM [falling, single point] | 35.5 µM [falling, single point]
CCCCC(Sc1nc2cc3c(cc2c(=O)n1CCCC(=O)NCc1ccc(OC)cc1)OCO3)C(=O)OCC (centres undefined) | – | 5.62 µM [rising, single point]
CCOC(=O)c1c(C)[nH]c(C2=NNC(=Nc3cccc(Cl)c3)SC2)c1C | – | 20 µM [rising, partial curve, poor fit]
CCN(c1ccc(NS(=O)(=O)c2cc(Cl)ccc2Cl)cc1)C(C)C | 12.6 µM [rising, partial curve, poor fit] | 22.4 µM [rising, single point]
COC(=O)c1ccc2c(c1)NC(=O)CS2 | – | 0.00316 µM [falling, full curve, poor fit]
Cc1ccc(-c2noc(CN(C(=O)C(c3ccccc3)c3ccccc3)C(C)C)n2)cc1 | 35.5 µM [rising, single point] | –
N=C(N)SCc1ccccc1Cl | 35.5 µM [rising, single point] | 35.5 µM [rising, single point]
Cc1ccc(NC(=O)Cn2cc(S(=O)(=O)c3ccc(F)cc3)c(=O)c3cc(F)ccc32)cc1 | – | 0.00447 µM [falling, full curve, poor fit]
Cc1ccc(Cl)cc1N1CCN(c2ncnc3onc(C)c23)CC1 | 5.62 µM [falling, single point] | –
CCCC(=O)Nc1nc2ccc(NC(=O)c3ccccc3F)cc2s1 | 2.82 µM [rising, partial curve] | –
O=S(=O)(Nc1cccc2c1CCCC2)c1cccc(C(F)(F)F)c1 | – | 12.6 µM [rising, partial curve, poor fit]
O=C(CSCc1ccccc1)N1CCN(c2ccc(F)cc2)CC1 | – | 15.8 µM [rising, partial curve]
CC1CC(C)CN(C(=O)C2CCCN(S(=O)(=O)c3cccc4nonc34)C2)C1 (centres undefined) | – | 25.1 µM [rising, single point]
CC1Sc2ccc(Cl)cc2-c2nc(N)ncc21 (centres undefined) | – | 0.00447 µM [falling, full curve, poor fit]
CCC(c1nnnn1C(C)(C)C)N1CCN(c2cc(Cl)ccc2C)CC1 (centres undefined) | 11.2 µM [rising, single point] | 22.4 µM [rising, single point]
Cc1ccc(S(=O)(=O)N(CC(=O)Nc2ccccc2C(=O)O)c2ccccc2)cc1 | 7.94 µM [falling, partial curve] | 11.2 µM [falling, partial curve, poor fit]
CN1C(=O)c2cccc3c(S(=O)(=O)Nc4ccccn4)ccc1c23 | – | 14.1 µM [rising, partial curve]
O=C(O)CCCCn1c(SCc2ccccc2Cl)nc2ccsc2c1=O | – | 0.0708 µM [falling, full curve, poor fit]
CC(C)(Oc1ccc(Cl)cc1)C(=O)N(Cc1ccccc1)c1ccccn1 | – | 35.5 µM [rising, single point]
CC1=CC(C)(C)N(C(=O)CSc2nccn2C)c2cc(C)ccc21 | – | 35.5 µM [rising, single point]
CCSC1=C(C#N)C(c2ccccc2Cl)C(C(=O)c2cccs2)C(O)(C(F)(F)F)N1 (centres undefined) | – | 15.8 µM [rising, single point]
Nc1c([N+](=O)[O-])c(=O)oc2ccccc12 | 0.02 µM [falling, full curve] | 0.0126 µM [falling, full curve]
c1ccc(Cn2c(-c3cccs3)nc3nc4ccccc4nc32)cc1 | 14.1 µM [rising, partial curve, poor fit] | 20 µM [rising, partial curve, poor fit]
Cc1ccc(CNC(=O)Cn2c(=O)n(-c3ccccc3)c(=O)c3sccc32)cc1 | – | 0.0794 µM [falling, full curve, poor fit]
COc1ccc(C(CCNC(C)c2ccccc2)c2ccc(F)cc2)cc1 (centres undefined) | – | 12.6 µM [rising, single point]
O=c1c2ccccc2c(-c2cccc(C(F)(F)F)c2)nn1-c1ccccc1 | – | 6.31 µM [falling, single point]
CCCSCCCNC(=O)c1ccc2nc(Cc3ccccc3)oc2c1 | 1 µM [falling, full curve] | 0.891 µM [falling, full curve]

Part of the list above, with each value named:
Cc1ccc(CNC(=O)Cn2c(=O)n(-c3ccccc3)c(=O)c3sccc32)cc1
  AC50 [2]: 0.0794 µM [falling, full curve, poor fit]
COc1ccc(C(CCNC(C)c2ccccc2)c2ccc(F)cc2)cc1 (centres undefined)
  AC50 [2]: 12.6 µM [rising, single point]
O=c1c2ccccc2c(-c2cccc(C(F)(F)F)c2)nn1-c1ccccc1
  AC50 [2]: 6.31 µM [falling, single point]

Part of the list above, tab-delimited:
SMILES	AC50 [1]	AC50 [2]
CCOC(=O)c1c(C)nc2sc(C(=O)Nc3ccc(C(C)=O)cc3)c(N)c2c1-c1ccc(OC)cc1	0.794 µM [falling, partial curve, poor fit]	–
CSc1nc(-c2ccccc2)nc(C(Cl)Cl)n1	35.5 µM [falling, single point]	3.16 µM [rising, partial curve]

From PubChem BioAssay AID1487 (National Center for Advancing Translational Sciences (NCATS), 2009)
